Data as given in patent US20120264815.
For some assays here: Where cells or extracts were used, other partners may take part. For some assays here: Construct, isoform or probe ends are uncertain for at least one entry. For some assays here: A negative result means that nothing was seen under these conditions.

Chains of the proteins cited; added tags and fusions are not shown. Chains listed by the source or under a name are the forms on record and can include a tag or linker. Residues count along the entry.
UniProt Q8CIZ8, 764-2813: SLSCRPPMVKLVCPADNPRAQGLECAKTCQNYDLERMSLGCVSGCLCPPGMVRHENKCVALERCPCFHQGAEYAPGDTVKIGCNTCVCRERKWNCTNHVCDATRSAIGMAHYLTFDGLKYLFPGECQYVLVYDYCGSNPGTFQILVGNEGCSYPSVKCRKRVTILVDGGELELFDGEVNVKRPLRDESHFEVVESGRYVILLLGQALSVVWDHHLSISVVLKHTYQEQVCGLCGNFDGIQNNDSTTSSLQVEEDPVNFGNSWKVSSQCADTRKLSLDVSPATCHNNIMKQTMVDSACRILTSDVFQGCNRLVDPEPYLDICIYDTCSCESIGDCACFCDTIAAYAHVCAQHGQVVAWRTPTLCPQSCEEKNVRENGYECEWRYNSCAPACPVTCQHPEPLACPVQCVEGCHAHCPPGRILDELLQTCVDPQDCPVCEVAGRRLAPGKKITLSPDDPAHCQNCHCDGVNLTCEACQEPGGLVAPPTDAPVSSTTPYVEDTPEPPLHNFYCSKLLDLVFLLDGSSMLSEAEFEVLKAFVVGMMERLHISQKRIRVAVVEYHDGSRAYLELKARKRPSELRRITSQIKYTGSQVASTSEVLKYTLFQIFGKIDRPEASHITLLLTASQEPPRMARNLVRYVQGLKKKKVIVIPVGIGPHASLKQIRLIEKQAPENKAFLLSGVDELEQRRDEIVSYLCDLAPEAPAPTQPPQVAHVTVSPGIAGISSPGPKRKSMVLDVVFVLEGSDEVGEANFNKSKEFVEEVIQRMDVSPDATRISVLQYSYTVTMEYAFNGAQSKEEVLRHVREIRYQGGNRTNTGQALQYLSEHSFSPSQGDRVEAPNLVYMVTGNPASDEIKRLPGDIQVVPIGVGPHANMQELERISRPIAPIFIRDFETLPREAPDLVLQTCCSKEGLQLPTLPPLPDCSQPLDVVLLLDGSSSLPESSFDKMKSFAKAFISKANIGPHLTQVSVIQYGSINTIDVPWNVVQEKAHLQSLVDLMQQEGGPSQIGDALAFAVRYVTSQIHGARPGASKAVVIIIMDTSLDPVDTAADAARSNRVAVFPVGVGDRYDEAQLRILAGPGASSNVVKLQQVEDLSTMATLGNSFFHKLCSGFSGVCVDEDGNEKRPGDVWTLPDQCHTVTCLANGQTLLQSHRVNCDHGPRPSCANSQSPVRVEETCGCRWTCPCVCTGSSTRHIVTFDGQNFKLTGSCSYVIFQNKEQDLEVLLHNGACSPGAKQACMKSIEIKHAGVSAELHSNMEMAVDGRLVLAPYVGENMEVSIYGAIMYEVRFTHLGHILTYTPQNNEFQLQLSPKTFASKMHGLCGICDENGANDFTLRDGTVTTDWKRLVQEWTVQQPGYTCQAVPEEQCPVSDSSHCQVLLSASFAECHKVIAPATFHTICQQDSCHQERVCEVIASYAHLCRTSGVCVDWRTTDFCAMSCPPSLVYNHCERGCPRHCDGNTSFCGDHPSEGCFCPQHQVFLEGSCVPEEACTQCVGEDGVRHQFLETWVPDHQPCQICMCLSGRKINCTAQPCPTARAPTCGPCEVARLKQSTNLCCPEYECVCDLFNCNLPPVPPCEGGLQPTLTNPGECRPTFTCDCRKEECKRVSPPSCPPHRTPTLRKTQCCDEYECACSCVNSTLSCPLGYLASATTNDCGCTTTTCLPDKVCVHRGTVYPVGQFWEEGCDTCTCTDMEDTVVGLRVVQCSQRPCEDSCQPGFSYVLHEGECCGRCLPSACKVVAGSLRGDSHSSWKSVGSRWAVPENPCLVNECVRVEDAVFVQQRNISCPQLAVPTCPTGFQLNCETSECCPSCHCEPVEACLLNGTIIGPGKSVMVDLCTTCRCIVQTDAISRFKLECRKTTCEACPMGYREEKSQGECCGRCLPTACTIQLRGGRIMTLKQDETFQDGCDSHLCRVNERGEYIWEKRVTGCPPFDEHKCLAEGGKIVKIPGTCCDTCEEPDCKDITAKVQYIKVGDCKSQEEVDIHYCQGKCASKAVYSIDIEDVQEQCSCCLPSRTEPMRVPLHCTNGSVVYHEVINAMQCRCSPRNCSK
glycoprotein IIb/IIIa on activated platelets (Homo sapiens), one chain, as listed by the source, chain 3 of 3: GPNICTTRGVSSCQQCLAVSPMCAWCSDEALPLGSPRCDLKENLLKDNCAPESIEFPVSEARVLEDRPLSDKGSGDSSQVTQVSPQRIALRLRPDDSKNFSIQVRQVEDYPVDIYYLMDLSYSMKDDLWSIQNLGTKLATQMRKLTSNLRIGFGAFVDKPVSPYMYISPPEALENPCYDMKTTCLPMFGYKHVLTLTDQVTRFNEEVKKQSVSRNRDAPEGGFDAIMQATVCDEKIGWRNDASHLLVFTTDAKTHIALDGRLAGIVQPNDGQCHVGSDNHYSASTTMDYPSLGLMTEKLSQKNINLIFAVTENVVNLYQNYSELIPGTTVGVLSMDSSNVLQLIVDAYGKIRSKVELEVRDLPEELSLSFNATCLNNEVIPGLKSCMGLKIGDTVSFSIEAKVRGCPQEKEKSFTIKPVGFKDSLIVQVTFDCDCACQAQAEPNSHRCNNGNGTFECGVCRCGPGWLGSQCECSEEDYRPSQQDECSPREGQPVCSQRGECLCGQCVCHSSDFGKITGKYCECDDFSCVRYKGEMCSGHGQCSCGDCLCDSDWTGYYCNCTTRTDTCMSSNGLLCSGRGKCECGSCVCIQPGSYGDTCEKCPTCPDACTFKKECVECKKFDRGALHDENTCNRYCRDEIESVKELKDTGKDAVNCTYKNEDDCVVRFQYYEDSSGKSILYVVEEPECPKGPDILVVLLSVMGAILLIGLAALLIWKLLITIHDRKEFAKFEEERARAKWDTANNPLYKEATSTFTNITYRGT
glycoprotein IIb/IIIa on activated platelets (Homo sapiens), one chain, as listed by the source, chain 2 of 3: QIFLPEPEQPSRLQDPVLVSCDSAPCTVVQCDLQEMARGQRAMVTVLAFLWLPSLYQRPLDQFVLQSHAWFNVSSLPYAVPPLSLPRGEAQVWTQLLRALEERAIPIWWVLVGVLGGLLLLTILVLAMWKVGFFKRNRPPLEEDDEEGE

Assays:
[1] = target: von Willebrand factor (VWF) (Homo sapiens) (UniProt P04275); assay: filter binding; details: 2'-F pyrimidines; nitrocellulose filter binding, 37 C, 2 mM CaCl2; purified native protein; protein details: Haematologic Technologies Inc. (factor VIII free); label: 5'-32P
[2] = target: VWF SPI fragment (V8 protease + C-terminal 455 residues of SPIII) (UniProt P04275); assay: filter binding; details: 2'-F pyrimidines, purified native protein, label: 5'-32P
[3] = target: VWF SPIII fragment (V8 protease) (UniProt P04275); assay: filter binding; details: 2'-F pyrimidines; 37 C, 2 mM CaCl2; purified native protein; label: 5'-32P
[4] = target: von Willebrand factor (VWF) (Homo sapiens) (UniProt P04275); assay: activity in cells; details: 2'-F pyrimidines, purified native protein, protein details: Haematologic Technologies Inc. (factor VIII free)
[5] = target: von Willebrand factor (in vivo, mouse) (Mus musculus) (UniProt Q8CIZ8); assay: activity in cells; details: 2'-F pyrimidines; 5'-cholesterol; mouse FeCl3 carotid model, 3 mg/kg, patency kept 60 min; increased tail bleeding; protein in cells; variant of 9.14 T10
[6] = test system: glycoprotein IIb/IIIa on activated platelets (Homo sapiens); assay: filter binding; details: 2'-F pyrimidines; protein on the cell surface; label: 5'-32P
[7] = target: von Willebrand factor (VWF) (Homo sapiens) (UniProt P04275); assay: FP; details: 2'-F pyrimidines; purified native protein; protein details: Haematologic Technologies Inc. (factor VIII free); label: 5'-32P

With “GGGAGGACGAUGCGGUAUAGACCACAGCCUGAGAUUAACCACCAACCCAGGACUCAGACGACUCGCUGAGGAUCC [VWF R9.4]” the Kd [1] was 1.9 nM, the binding result ([2]; maps near A3 domain) was “binds” and the binding result [3] was “binds”.

“GGGAGGUGGACGAACUGCCCUCAGCUACUUUCAUGUUGCUGACGCACAGACGACUCGCUG [9.14 T10]” was tested, and the “functional effect of the aptamer” value ([4]; PFA-100 inhibition at 50 nM, variant of VWF …) was “active”.

In the case of “GGGAGGUGGACGAACUGCCCUCAGCUACUUUCAUGUUGCUGACGCACAGACGACUCGCUG [Ch-9.14-T10]”, the “functional effect of the aptamer” value ([4]; 5'-cholesterol, PFA-100 complete inhibition at 50 nM, reversed by AO1 and CDP, variant of 9.14 T10) is reported as “active” and the “functional effect of the aptamer” value [5] is reported as “active”.

“GGGAGGACGAUGCGGACCUGCUAGCAGUGGCGCGAAUAAACCAUCGCAGCAUCAACAGACGACUCGCUGAGGAUCC [C4]”: binds [6].

For “GGGAGGACGAUGCGGUGCUCCUUGGCCUUAGCCCUGGAACCAUCAAUCCUCUUCGCAGACGACUCGCUGAGGAUCC [VWF R9.18]”, the Kd [1] was 278 nM.

“GGGAGGACGAUGCGGACAGAUCUACCCGAGACAAACAUCCCACCCUCCGACAGACGACUCGCUGAGGAUCC [C6]”: binds [6].

“GGGAGGACGAUGCGGUAUAACCGUUCUAGCGCUAAUGACACUAUAGCAUCCCCGUCAGACGACUCGCUGAGGAUCC [C2]”: binds [6].

“GGGAGGACGAUGCGGUGCCACAUGCCUCAGAUACAGCACGCACCUUCGACCUAAUCAGACGACUCGCUGAGGAUCC [C8]”: binds [6].

For “GGGAGGACGAUGCGGAUCGCGCUCUCCUGCUUAAGCAGCUAUCAAAUAGCCCACUCAGACGACUCGCUGAGGAUCC [VWF R9.3]”, the functional effect of the aptamer (s closing time) ([4]; PFA-100 complete inhibition above 40 nM, RIPA blocked at 250 nM, no effect on collagen, ADP, thrombin aggregation) was over 300, the Kd [7] was 1.2 nM and the binding result ([2]; 37 C, 2 mM CaCl2) was “no binding”. “GGGAGGACGAUGCGGAUCGCGCUCUCCUGCUUAAGCAGCUAUCAAAUAGCCCACUCAGACGACUCGCUGAGGAUCC [VWF R9.3]”: binds [3].

“GGGAGGACGAUGCGGUCCCUUGGAUGAGACUAACAACCUACCACAUCCUAUACUCCAGACGACUCGCUGAGGAUCC [C9]”: binds [6].

“GGGAGGACGAUGCGGUCCUAAGAUUAAAUACGCCACGGCUCACUUACACACCAGCAGACGACUCGCUGAGGAUCC [C7]”: binds [6].
